70 compounds from the supplement of paper PMC8104966 can be followed below.

“And” between values parts separate entries of the source, which are not always exact repeats. Equal entries are not always repeated. This is one part of the list. Single values are uncertain here, since repeats match poorly.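 U2OS cells expressing ACE2 were combined with U2OS cells expressing full-length spike, and imaging quantified fusion as the fraction of nuclei displaying both cell types' fluorescent markers. Non-toxic compounds with a fusion z-score under -3, i.e., over three standard deviations below the plate's DMSO wells, are called inhibitory hits.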

This experiment deals with U2OS ACE2 x SARS-CoV-2 spike co-culture. Kind of experiment: cell-cell fusion (fraction fused) z-score vs plate DMSO control; higher = more fusion. The settings on record: 30 µM; 5 h; toxicity class: non-toxic, passed QC.
For the compound `CCCCc1oc2ccccc2c1C(=O)c1cc(I)c(OCCN(CC)CC)c(I)c1.Cl`, the “cell-cell fusion (z-score)” value is inactive: 3.01. Next, `CC(C)NCC(O)c1cc(O)cc(O)c1.CC(C)NCC(O)c1cc(O)cc(O)c1.O=S(=O)(O)O` (stereo not given) [Metaproterenol hemisulfate]: inactive: -0.527; `OC[C@H]1O[C@@H](n2cnc3c(NC4CCCC4)ncnc32)C(O)[C@H]1O` (stereo not given in full) [N6-Cyclopentyladenosine]: inactive: 1.56; `COc1cc2c(c(OC)c1OC)-c1ccc(OC)c(=O)cc1[C@@H](NC(C)=O)CC2` [Colchicine]: inactive: 0.421.

With `CCCCn1c(=O)n(Cc2ccccc2F)c(=O)c2nc(Cc3ccc(NC(C)=O)cc3)[nH]c21` [cPEPCK inhibitor], the “cell-cell fusion (z-score)” value was inactive: 1.61. For `O=C1NC(=O)C(c2ccccc2[N+](=O)[O-])=C1Nc1ccc(O)c(Cl)c1`, the “cell-cell fusion (z-score)” value is inactive: 1.2. Next, `O=C(O)C(=O)CBr` [3-Bromopyruvic acid]: inactive: 1.68; `COc1cc2c(cc1OC)-c1c(oc3cc(O)cc(O)c3c1=O)CO2`: inactive: 1.86; `NS(=O)(=O)c1cc2c(cc1Cl)NC(C1CC3C=CC1C3)NS2(=O)=O` (stereo not given) [Cyclothiazide]: inactive: 3.23. Next, `N#CCC(=O)NN`: inactive: 1.21.

`C[C@@H]1O[C@@H](O[C@H]2[C@@H](Oc3cc(O)c4c(c3)O[C@H](c3ccc(O)cc3)CC4=O)O[C@H](CO)[C@@H](O)[C@@H]2O)[C@H](O)[C@H](O)[C@H]1O`: the “cell-cell fusion (z-score)” value is inactive: 1.99. Next, `CCOC(=O)C1=C(C)NC(C)=C(C(=O)OC)C1c1cccc([N+](=O)[O-])c1` (stereo not given) [Nitrendipine]: inactive: 3.69; `NS(=O)(=O)c1cc(C2(O)NC(=O)c3ccccc32)ccc1Cl` (stereo not given) [Chlortalidone]: inactive: 1.99; `CN(C)CCOC(=O)COc1ccc(Cl)cc1.Cl`: inactive: 2.53. With `CN(C)CCOC(=O)COc1ccc(Cl)cc1.Cl` [Centrophenoxine hydrochloride], the “cell-cell fusion (z-score)” value is inactive: 2.53. The figure for `C#CCN(C)Cc1ccccc1` [Pargyline] is inactive: 3.42. The figure for `C[N+]1(C)CCN(c2ccccc2)CC1.[I-]` [1,1-Dimethyl-4-phenyl-piperazinium iodide] is inactive: 3.14; for `CC1=CC(=O)c2ccccc2C1=O` it is inactive: -0.974.

Turning to `c1ccc2c(Cc3c[nH]c4ccccc34)c[nH]c2c1`, the “cell-cell fusion (z-score)” value was inactive: 1.7. Consider `C=C(C)C1CC=C(C)CC1` (stereo not given), for which the “cell-cell fusion (z-score)” value is inactive: 3.24. The figure for `NCc1ccccc1CC(=O)N[C@@H]1C(=O)N2C(C(=O)O)=C(CSc3nnnn3CC(=O)O)CS[C@H]12` [Ceforanide] is inactive: 1.54; for `Nc1ncnc2c1ncn2C1C[C@H](O)[C@@H](CO)O1` (stereo not given in full) it is inactive: 1.7.

With `Br.Br.N=C(N)SCCc1c[nH]cn1` [Imetit dihydrobromide], the “cell-cell fusion (z-score)” value is inactive: 2.29.

Consider `CC(C)NC[C@H](O)COc1ccc(CCOCC2CC2)cc1.Cl` [Levobetaxolol HCl], for which the “cell-cell fusion (z-score)” value is inactive: 1.63. Consider `COC(=O)N(C)c1c(N)nc(-c2nn(Cc3ccccc3F)c3ncccc23)nc1N` [Riociguat], for which the “cell-cell fusion (z-score)” value is inactive: 2.98. Next, `C=C(C)[C@@H]1CC[C@]2(CO)CC[C@]3(C)[C@H](CCC4[C@@]5(C)CC[C@H](O)C(C)(C)C5CC[C@]43C)C12` (stereo not given in full): inactive: 1.62; `NC(=O)NC1NC(=O)NC1=O` (stereo not given): inactive: 2.65. Turning to `CC(=O)Nc1cc2ccccc2oc1=O`, the “cell-cell fusion (z-score)” value was inactive: 2.56. The figure for `C[C@]12CC[C@@H]3c4ccc(O)cc4C[C@@H](CCCCCCCCCS(=O)CCCC(F)(F)C(F)(F)F)[C@H]3[C@@H]1CC[C@@H]2O` (stereo not given in full) [Fulvestrant] is inactive: 2.1. Next, `C#C[C@]1(O)CC[C@H]2[C@@H]3CCc4cc(OC5CCCC5)ccc4[C@H]3CC[C@@]21C` [Quinestrol]: inactive: 1.59; `Br.Br.CN(C)CCCc1cc(C(=O)Nc2ccc(-c3ccncc3)cc2)ccc1O`: inactive: -1.48; `CCOP(=S)(OCC)Oc1nc(Cl)c(Cl)cc1Cl`: inactive: 4.1. The figure for `Oc1c(I)cc(Cl)c2cccnc12` is inactive: 3; for `Clc1ccc(C(Cn2ccnc2)OCc2csc3c(Cl)cccc23)c(Cl)c1.O=[N+]([O-])O` (stereo not given) [Sertaconazole nitrate] it is active: -5.4; for `COc1ccc2c(c1OC)N=C(NC(=O)c1cccnc1)N1CCN=C21` it is inactive: 1.96. For `CN[C@@H](C)C(=O)N[C@H]1CN(C(=O)CC(C)C)CC[C@H]2CC[C@@H](C(=O)NC(c3ccccc3)c3ccccc3)N2C1=O`, the “cell-cell fusion (z-score)” value was inactive: 1.59. Next, `CC(=O)OCC[C@H](C)CCC=C(C)C`: inactive: 1.93.

Turning to `CC(=O)OC(C)C[N+](C)(C)C.[Cl-]` (stereo not given) [Methacholine Chloride], the “cell-cell fusion (z-score)” value is inactive: 1.9. With `CC(=O)OC(C)C[N+](C)(C)C.[Cl-]` (stereo not drawn) [Acetyl-beta-methylcholine chloride], the “cell-cell fusion (z-score)” value is inactive: 1.9. Next, `CC(=O)OC(C)C[N+](C)(C)C.[Cl-]` (stereo not given): inactive: 1.24; `Nc1nc2c(nc(Br)n2C2OC3CO[P@@](=O)([O-])O[C@@H]3C2O)c(=O)[nH]1.[Na+]` (stereo not given in full) [8-Bromo-cGMP sodium]: inactive: 1.6; `Oc1cc(O)cc(/C=C/c2ccc(O)c(O)c2)c1` [Piceatannol]: inactive: -2.21. The figure for `O=C(O[C@@H]1C[C@@H]2C[C@@H]3C[C@H](C1)N2CC3=O)c1c[nH]c2ccccc12` [Dolasetron] is inactive: 0.879; for `C/C(=C\C(=O)OCCCCCCCCC(=O)O)C[C@@H]1OC[C@H](C[C@@H]2O[C@H]2[C@@H](C)[C@H](C)O)[C@@H](O)[C@H]1O` it is inactive: 3.81.

For `CC(=O)[C@H]1CCC2C3CCC4=CC(=O)CC[C@]4(C)C3CC[C@@]21C` (stereo not given in full), the “cell-cell fusion (z-score)” value is inactive: 1.27. Next, `C[C@H](N)[C@H](O)c1cccc(O)c1.O=C(O)[C@H](O)[C@@H](O)C(=O)O`: inactive: -0.162; `COc1cc(OC2CCN(C)CC2)ccc1Nc1ncc2c(n1)n(C1CCCC1)c(=O)n2C`: inactive: 1.51. With `O=C(O)[C@@H]1CCCN1` [proline], the “cell-cell fusion (z-score)” value was inactive: -0.606. Next, `CC(C)(C)NC(=O)[C@H]1CC[C@H]2[C@@H]3CC[C@H]4NC(=O)C=C[C@]4(C)[C@H]3CC[C@]12C` [Finasteride]: inactive: 3.48. In the case of `Cl.c1ccc2c(N3CCNCC3)cccc2c1` [1-(1-Naphthyl)piperazine hydrochloride], the “cell-cell fusion (z-score)” value was inactive: 2.07. With `CN(C)[C@@H]1C(O)=C(C(N)=O)C(=O)[C@@]2(O)C(O)=C3C(=O)c4c(O)cccc4[C@@](C)(O)[C@H]3C[C@@H]12.Cl`, the “cell-cell fusion (z-score)” value is inactive: 2.

As for `CC[C@H]1OC(=O)[C@H](C)[C@@H](O[C@H]2C[C@@](C)(OC)[C@@H](O)[C@H](C)O2)[C@H](C)[C@@H](O[C@@H]2O[C@H](C)C[C@H](N(C)C)[C@H]2O)[C@](C)(O)C[C@@H](C)/C(=N\OCOCCOC)[C@H](C)[C@@H](O)[C@]1(C)O`, the “cell-cell fusion (z-score)” value was inactive: 4.13. As for `Cc1cccc(C)c1OCC(N)C(C)C.I` (stereo not given), the “cell-cell fusion (z-score)” value was inactive: 3.18.

For `Nc1nccc(Oc2ccc(NC(=O)c3c[nH]cc(-c4ccc(F)cc4)c3=O)cc2F)c1Cl`, the “cell-cell fusion (z-score)” value was inactive: 0.942 and inactive: 2.34.

On to `[Cl-].[Cl-].[Cl-].[Cl-].[Cl-].[Cl-].[NH3+][Ru]([NH3+])([NH3+])([NH3+])([NH3+])[O][Ru]([NH3+])([NH3+])([NH3+])([NH3+])[O][Ru]([NH3+])([NH3+])([NH3+])([NH3+])[NH3+]` [Ruthenium red], for which the “cell-cell fusion (z-score)” value is inactive: -0.212. Take `C=C1CC[C@H](O)C/C1=C/C=C1\CCC[C@]2(C)[C@@H]([C@H](C)CCCC(C)(C)O)CC[C@@H]12` [Calcifediol]: the “cell-cell fusion (z-score)” value is inactive: 1.85. The figure for `CN1C(=O)CCS(=O)(=O)C1c1ccc(Cl)cc1` (stereo not given) [Chlormezanone] is inactive: 1.52; for `CC(C)(C)[C@]1(O)CCN2C[C@H]3c4ccccc4CCc4cccc(c43)[C@@H]2C1.Cl` (racemic) [(±)-Butaclamol hydrochloride] it is inactive: 2.17; for `COc1cc2ncnc(Nc3ccc(F)c(Cl)c3)c2cc1OCCCN1CCOCC1` [Gefitinib] it is inactive: 0.632.

In the case of `CCN(CC)CC(=O)Nc1c(C)cccc1C.Cl` [Lidocaine hydrochloride], the “cell-cell fusion (z-score)” value was inactive: 2.33. Next, `CCN(CC)CC(=O)Nc1c(C)cccc1C.Cl`: inactive: 1.71. Take `Cc1cc2cc3c(C)cc(=O)oc3c(C)c2o1`: the “cell-cell fusion (z-score)” value was inactive: 2.23. Next, `CC(=O)/C=C1\C(=O)N(C)c2ccccc21` [Supercinnamaldehyde]: inactive: 0.662; `Cc1ccc(NC(=O)c2cccc(N(C)C)c2)cc1NC(=O)c1ccc(O)cc1`: inactive: 2.8; `Nc1nc(=O)c2c([nH]1)NCC(CNc1ccc(C(=O)N[C@@H](CCC(=O)[O-])C(=O)[O-])cc1)N2C=O.O.O.O.O.O.[Ca+2]` (stereo not given in full) [Folinic Acid Calcium Salt Pentahydrate]: inactive: 3.52. Next, `Cc1nc2n(c(=O)c1CCN1CCC(c3noc4cc(F)ccc34)CC1)CCCC2O` (stereo not given) [Paliperidone]: inactive: 1.78. Turning to `C#CCCCCCCCCCCCC(O)CC(O)COC(C)=O` (stereo not given), the “cell-cell fusion (z-score)” value was inactive: 2.2. Next, `Cl.Clc1cccc(Cl)c1N=C1NCCN1`: inactive: 0.275; `Cl.Clc1cccc(Cl)c1N=C1NCCN1` [Clonidine hydrochloride]: inactive: 0.734; `CCC(C)[C@H]1O[C@]2(C=C[C@@H]1C)C[C@@H]1C[C@@H](C/C=C(\C)[C@@H](OC3C[C@H](OC)C(O[C@H]4C[C@H](OC)[C@@H](NC(C)=O)[C@H](C)O4)[C@H](C)O3)[C@@H](C)/C=C/C=C3\CO[C@@H]4[C@H](O)C(C)=C[C@@H](C(=O)O1)[C@]34O)O2` (stereo not given in full): active: -16.7.
